These results are taken from patent EP2703005A1, “Inhibitors of alpha6 Integrin/E-Cadherin Complex” (Università Degli Studi Di Torino, priority 2012, dated 2014).

Sequences of proteins named here, by UniProt entry; tags and fusion partners are left off. A change or cut given only in a name is not applied to a line headed by its entry.
UniProt P16144: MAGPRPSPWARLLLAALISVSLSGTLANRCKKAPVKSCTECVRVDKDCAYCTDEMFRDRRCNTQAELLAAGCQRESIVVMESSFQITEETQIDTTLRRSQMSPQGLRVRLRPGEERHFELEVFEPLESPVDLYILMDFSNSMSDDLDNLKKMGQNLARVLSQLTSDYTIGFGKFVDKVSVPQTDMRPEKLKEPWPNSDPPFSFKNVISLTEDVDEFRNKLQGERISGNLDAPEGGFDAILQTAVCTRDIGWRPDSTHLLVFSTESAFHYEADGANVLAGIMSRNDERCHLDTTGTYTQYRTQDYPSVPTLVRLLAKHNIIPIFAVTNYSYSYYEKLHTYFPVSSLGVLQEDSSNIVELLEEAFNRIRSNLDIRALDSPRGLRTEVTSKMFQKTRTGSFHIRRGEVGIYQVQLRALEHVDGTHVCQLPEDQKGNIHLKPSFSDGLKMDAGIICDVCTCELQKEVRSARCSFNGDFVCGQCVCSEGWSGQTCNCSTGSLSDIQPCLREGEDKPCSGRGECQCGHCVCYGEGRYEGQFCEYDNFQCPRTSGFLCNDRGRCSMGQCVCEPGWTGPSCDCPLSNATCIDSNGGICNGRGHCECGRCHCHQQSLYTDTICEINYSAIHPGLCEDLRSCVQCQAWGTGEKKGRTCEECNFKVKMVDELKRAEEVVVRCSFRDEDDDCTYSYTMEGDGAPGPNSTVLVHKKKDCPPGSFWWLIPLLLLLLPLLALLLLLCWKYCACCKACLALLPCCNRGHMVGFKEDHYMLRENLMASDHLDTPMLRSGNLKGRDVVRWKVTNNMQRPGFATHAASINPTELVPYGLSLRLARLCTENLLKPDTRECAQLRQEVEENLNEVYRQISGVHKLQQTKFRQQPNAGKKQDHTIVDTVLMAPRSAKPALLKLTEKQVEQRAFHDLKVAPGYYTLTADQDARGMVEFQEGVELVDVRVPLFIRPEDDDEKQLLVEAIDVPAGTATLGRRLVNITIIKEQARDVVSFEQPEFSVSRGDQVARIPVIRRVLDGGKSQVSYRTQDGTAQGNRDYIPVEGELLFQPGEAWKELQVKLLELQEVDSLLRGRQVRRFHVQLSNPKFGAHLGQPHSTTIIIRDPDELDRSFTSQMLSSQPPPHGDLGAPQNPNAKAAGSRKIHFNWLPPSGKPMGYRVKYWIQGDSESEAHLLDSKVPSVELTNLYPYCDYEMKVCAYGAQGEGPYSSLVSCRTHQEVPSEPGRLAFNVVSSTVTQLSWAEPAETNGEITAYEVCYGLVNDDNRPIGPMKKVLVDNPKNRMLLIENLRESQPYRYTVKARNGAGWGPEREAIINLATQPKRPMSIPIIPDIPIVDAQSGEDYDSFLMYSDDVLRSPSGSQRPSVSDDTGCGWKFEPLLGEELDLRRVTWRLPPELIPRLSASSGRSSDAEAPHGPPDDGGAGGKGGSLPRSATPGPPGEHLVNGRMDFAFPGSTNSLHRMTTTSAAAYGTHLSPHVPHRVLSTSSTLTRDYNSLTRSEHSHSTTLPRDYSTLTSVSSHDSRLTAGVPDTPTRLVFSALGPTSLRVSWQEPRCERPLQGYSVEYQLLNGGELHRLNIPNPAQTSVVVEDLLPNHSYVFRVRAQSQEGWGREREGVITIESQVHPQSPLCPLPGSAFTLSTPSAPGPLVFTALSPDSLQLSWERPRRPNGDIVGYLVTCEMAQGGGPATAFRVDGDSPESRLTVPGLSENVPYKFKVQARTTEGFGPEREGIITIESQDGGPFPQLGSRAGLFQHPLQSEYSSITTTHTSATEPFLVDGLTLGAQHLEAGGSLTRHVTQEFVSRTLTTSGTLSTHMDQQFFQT

Results are given in words; binding and its absence hold for the method and conditions named. Some results given as binding are weak or reduced against the parent protein; the word gives no strength.

The target of experiment [1] is α6β4 integrin from human liver metastases (human) (UniProt P16144). As to the kind of experiment: peptide affinity column, elution with free peptide, ELISA for integrin subunits. On the technique in general: ELISA stands for enzyme-linked immunosorbent assay.
Experiment [2] shares this target. As to the kind of experiment: peptide affinity column fractions, phage binding and ELISA (Figure 8C, D).

B1: … peptide (synthetic) (peptide)
peptide: CGIYRLRSC
For B1, the binding result in experiment [1] and in experiment [2] was “binds” each time.
